# Screening data

Source: PubChem BioAssay AID1159506 (NCATS, 2015).

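Luminescence from an EWS-FLI1 target-promoter (NR0B1) reporter, set against a CMV-promoter reporter, two days after silencing single genes in TC32 Ewing sarcoma cells.
Each siRNA was applied at 20 nM.
A z-score of the log NR0B1-over-CMV signal, less the median of siRNAs with the same seed; more negative means a stronger specific loss of the NR0B1 reporter.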

The strongest results of the screen are mostly left out here.
Sequences are the guide (antisense) strand, without overhang.

Sequence	gene	seed-corrected z-score
UCUUGUUGCGGAGAUGUUC	VAMP8	1.003
UUGCGUAAUUAUGAAGUCG	ALS2	1.015
UGUGCAACAAGACCUUAGC	SH3RF1	0.937
UACUGGUUGAUGAGGAUGA	ATP6V1F	-0.2956
UUAUCCAUCACAAACAGCC	GALNT2	0.8025
UAAAGAAGGAAAGACCUGA	AMTN	2.889
UCCUCAUUCAAUGAAUCCC	C4orf19	-0.9388
AAAUUGAUAAAAACAAGUG	PRCD	0.452
UAUUAUCCAACUCUAAAAG	PLEKHS1	0.01375
AGAGAGCUCAGAAUUAGCU	ACD	-0.7742
UUCCGUUUCACAUCAAUGG	VPRBP	0.2612
AUACUUUAAGCUAAAAUAG	GTF2I	-0.9401
UUCGUGGACAUCUCGUCCU	PKP3	0.1808
UUUGACUCCGUUGUAAUUG	REG1A	0.1252
UUCUUUACAGGACCAUUGG	SGCB	0.2741
UGAAUAUCAGACAUUAGAG	TDRD6	0.8693
UCCGCAAUCCGUAUGGGAC	LOC728287	0.3282
UUCACGGAAAGAGUCAGGC	TDRG1	0.123
UCGGUAAUCACUGUCAGAG	SCHIP1	-0.07608
UUCGUCCUCGCAGUUCUGC	STRN4	-0.1872
AUGACUUUGGUGAAGAUGC	RHEBL1	0.3064
UGACUCAGUAGAAACUUGC	KLHL17	0.2602
UACUGGAGUAGAAUUUCCC	CACNB2	-0.5158
AAGGUUAAGACUAUGCCUG	DDX56	0.206
UAUGUUCAUACAAUCUACC	FIBIN	-0.4438
UUAACGAAGUCCGUAAGUG	CEP290	0.4367
AUUGUGGUCAAGAUAAGCC	TLR10	-1.268
ACAGCAACAAGAUGAAGGC	CACFD1	0.19
ACCAUGACAAACUUCACCU	TRAPPC2L	0.04238
UUUGCUCAAACAUUGCGCC	TYW3	-1.109
AGGAAAUUCGUUGGGAUGC	ZNF701	1.009
AAUUCUUUCUCUGUAAGUU	RCVRN	0.5934
UCUGUAUCCAUUCCUUAUC	ERICH6B	0.1508
AUAGGAGUCUGAGAACUCG	CTPS1	-0.05948
UUUCAUUGAGGUUGGGUCC	ARFIP2	0.2974
UUCGAUGUCGUCUCCCUCC	VSTM2B	0.4255
UUGUGAGAAAGCACACCUC	NLGN2	0.8927
UUGGUGUUUACAUUUCCCU	LOC646179	0.4363
UAUAUCUCCAGAUUUAGCU	EXOSC3	-0.3456
UUCUAUUCUUUGUGCAUCC	NUDT13	-0.8078
ACAGGGUUAACUUCAGCUC	RLN2	-0.1382
UUAUAUUGCCUGACAGUUC	CCDC102B	0.6622
UUUUUGUGACUCGAUCUCU	TSPY1	0.6308
UUCGGUUCAAUCUUUUUCC	KLHDC3	0.7181
AAAGUAAUGCAAGAGAACC	GLP2R	-0.05764
UAGACGAAGAUGAGAAUAC	ATP1A4	0.05806
UUCUCAACCAGGUACUCGG	BTBD17	0.8447
UUUACUUAGAUGAUACCUC	EVC2	0.02803
AGAGUUUGUAGCAUUAUGG	CCNT2	0.4294
GUCACUGUCAAUCACCUCG	CLEC18A	0.6844
AAAUUAAUAUAGUCCAUGG	TULP4	-0.07491
UUUCUUAGCCCACAUAUUC	COX6C	-0.4715
UUCUUCACUAUUUGCCUGG	VAX1	-0.4584
AUAGGUUUGGGCAUAAUGC	ZNF438	0.1072
UUUCUGAACAAAGUCCAUG	TSPAN15	-0.03409
UUCAGUAGCAUUAUCAAGG	SCEL	0.4031
AAACCAUACAUAAUUAACC	SLC9A9	-0.04771
UACCAGUCUCGACUCCUCC	LOC728392	-0.03975
UAACUAACUGUCCCUGUUC	PUS7L	0.201
UUUAUAGAUAGGGUCAUUA	UGT2B17	0.2552
UGGUUUUCAAAGGUAAUCC	ZPLD1	-1.957
UCUUGAGGAAAUUCGAGGC	UCMA	-0.2991
UUCUAAUUCACUUCGCAGC	SNX3	-0.3397
UUGACGAACAGCAAAUAUU	MOCS2	0.3506
AUCUGGACUCCUGCUCUGU	PHF24	1.355
UCAGUGUCGUUGACGAGGC	FSCN2	0.5721
UAUCUGAUGCUAGCACUUC	FAM64A	0.8606
AUUUCCAAGAGAGUGAGGC	MRPL12	-0.9492
AUUGCGUUGACAAAGUUCG	LRRC8D	0.01428
UAGGUUAGGAUGUCCAAAG	RPP14	0.5007
UAACGAGUUGUGAAGACCA	KDELR2	-0.7509
UCCUGGUAGACAAAUUCCC	ZSCAN18	-0.1991
UAGCGUAGCACUCCUUUCG	KIF19	0.0952
AUAGUUGUAAGAGGAGCCG	KCTD5	0.9119
UUCGCUCCCACCCAUAUCC	NFKBIL1	0.3937
AUAGUCACGAUUUCCAGGA	KCNQ2	-0.1559
UUGAGAGUCUCAUUGGUCA	PAQR5	-0.3726
UGAAGUCUAAGUACUCAGG	SLFN12	0.7658
UCCACUAUAAAAUAACGAC	SKA1	0.1757
UGCAUAAUUAGCGACGGAC	GAK	-0.494
UUCGUAGAAGCCGUCCUCC	KCNJ9	-1.085
CCGGUCUUCACUCCGUUUC	P2RX5	0.08208
GAAAGAGUAACACUUCUCG	CRLF2	1.062
UUGAUUGCAAAGCUUAUUG	SFSWAP	0.1237

5 of the entries, repeated:

| Sequence | gene | seed-corrected z-score |
|---|---|---|
| `UGAAGUCUAAGUACUCAGG` | SLFN12 | 0.7658 |
| `UUGUGAGAAAGCACACCUC` | NLGN2 | 0.8927 |
| `UUAACGAAGUCCGUAAGUG` | CEP290 | 0.4367 |
| `UUUGACUCCGUUGUAAUUG` | REG1A | 0.1252 |
| `AUUUCCAAGAGAGUGAGGC` | MRPL12 | -0.9492 |